# Measured values: publication PMC11157767 (Molecular Cancer, 2024)
# Several values for one entry are separate records, joined by “and”; a condition that tells them apart may be missing. Equal values may be shown once. Read-outs that look alike come from different tables or passages of the source. The source gives many values for each of these; only a part stands here.
# Tests used:
# TFG-MET allograft tumors = test: TFG-MET allograft preclinical trial in CD1 mice, Survival cohort (survival, BLI, body weight); assay type: in vivo, mouse; details: Murine allografts
# Experimental: All treatments started 1 week after transplantation. Radio therapy was administered for 6 days, delivering 12 Gy total. Compound treatment was continued for 84 days. […] N = 8 (vehicle arms) or n = 10 (compound-treated arms), respectively. […] First row is depicted in another intensity scale to visualize tumors in all mice. The depicted scale bar indicates the range from 5x10^5-1x10^7 photons/sec/cm^2/sr.
# Survival, body weight and tumor burden data from TFG-MET allograft-bearing mice. a,Schematic illustrating the preliminary in vivo study to determine the efficacy of RT alone. b, Survival curve of mice depicted in a. […] Each line represents one mouse. The ends of lines indicate the onset of neurological symptoms and thereby the endpoints.
# Bioluminescence signals of in vivo trials.
# TRIM24-MET-i PDOX = details: PDX trial cap vs cabo
smiles,measurement,setting,value
CNC(=O)c1ccc(-c2cnc3ncc(Cc4ccc5ncccc5c4)n3n2)cc1F [Capmatinib],"BLI signal, individual mice","TFG-MET allograft tumors; day 7, drug alone",1.90E+06 and 2.60E+07 and 2.40E+06 and 2.70E+06 and 1.40E+06 and 1.70E+07
same,"BLI signal, individual mice","TFG-MET allograft tumors; day 10, drug alone",7.60E+05 and 3.90E+07 and 3.50E+06 and 6.30E+06 and 4.00E+06 and 5.30E+07
same,"BLI signal, individual mice","TFG-MET allograft tumors; day 14, drug alone",3.80E+05 and 1.40E+08 and 1.70E+07 and 7.70E+06 and 8.00E+07
same,"BLI signal, individual mice","TFG-MET allograft tumors; day 21, drug alone",1.30E+05 and 2.40E+08 and 1.10E+08 and 2.50E+08 and 1.80E+08 and 1.20E+08
same,"BLI signal, individual mice","TFG-MET allograft tumors; day 28, drug alone",1.50E+05 and 4.40E+08
same,"BLI signal, individual mice","TFG-MET allograft tumors; day 35, drug alone",1.50E+05
same,"BLI signal, individual mice","TFG-MET allograft tumors; day 42, drug alone",1.40E+05
same,"BLI signal, individual mice","TFG-MET allograft tumors; day 49, drug + RT",1.10E+08
same,"BLI signal, individual mice","TFG-MET allograft tumors; day 49, drug alone",1.30E+05
same,"BLI signal, individual mice","TFG-MET allograft tumors; day 56, drug alone",1.20E+05
same,"BLI signal, individual mice","TFG-MET allograft tumors; day 63, drug alone",1.20E+05
same,"BLI signal, individual mice","TFG-MET allograft tumors; day 70, drug alone",1.30E+05
same,"BLI signal, individual mice","TFG-MET allograft tumors; day 77, drug alone",1.23E+05
same,"BLI signal, individual mice","TFG-MET allograft tumors; day 84, drug alone",1.03E+05
same,"BLI signal, individual mice","TFG-MET allograft tumors; day 91, drug alone",1.21E+05
same,"BLI signal, individual mice",TRIM24-MET-i PDOX; day 7,3.40E+07 and 9.75E+06 and 1.52E+06 and 7.12E+07 and 1.10E+07
same,"BLI signal, individual mice",TRIM24-MET-i PDOX; day 9,5.27E+07 and 7.33E+07 and 2.46E+07 and 1.25E+07 and 9.36E+07 and 2.95E+07
same,"BLI signal, individual mice",TRIM24-MET-i PDOX; day 14,2.89E+07 and 4.47E+07 and 1.07E+07 and 9.58E+06 and 4.41E+07 and 1.75E+07
same,"BLI signal, individual mice",TRIM24-MET-i PDOX; day 17,8.30E+06 and 1.08E+07 and 3.11E+05 and 1.16E+07 and 1.46E+07 and 6.19E+06
same,"BLI signal, individual mice",TRIM24-MET-i PDOX; day 21,9.07E+06 and 1.26E+07 and 1.15E+07 and 1.31E+07 and 2.09E+07 and 1.02E+07
same,"BLI signal, individual mice",TRIM24-MET-i PDOX; day 24,5.56E+06 and 1.03E+07 and 1.36E+07 and 1.28E+07 and 1.09E+07
same,"BLI signal, individual mice",TRIM24-MET-i PDOX; day 28,7.43E+06 and 7.15E+06 and 1.24E+07 and 1.98E+07 and 1.79E+07 and 1.04E+07
same,"BLI signal, individual mice",TRIM24-MET-i PDOX; day 31,5.43E+06 and 5.33E+06 and 1.51E+07 and 1.57E+07 and 1.53E+07 and 1.65E+07
same,"BLI signal, individual mice",TRIM24-MET-i PDOX; day 35,6.89E+05 and 1.12E+07 and 1.52E+07 and 2.26E+07 and 1.45E+07
same,"BLI signal, individual mice",TRIM24-MET-i PDOX; day 38,8.82E+04 and 1.26E+07 and 1.66E+07 and 1.77E+07 and 1.67E+07
same,"BLI signal, individual mice",TRIM24-MET-i PDOX; day 42,4.52E+04 and 1.34E+07 and 1.70E+07 and 2.43E+07 and 1.81E+07
same,"BLI signal, individual mice",TRIM24-MET-i PDOX; day 49,4.09E+04 and 1.40E+07 and 1.15E+07 and 1.29E+07 and 1.04E+07
same,"BLI signal, individual mice",TRIM24-MET-i PDOX; day 52,1.20E+04 and 1.19E+07 and 1.06E+07 and 1.39E+07
same,"BLI signal, individual mice",TRIM24-MET-i PDOX; day 56,1.66E+05 and 1.62E+07 and 1.51E+07 and 1.46E+07 and 1.01E+07
same,"BLI signal, individual mice",TRIM24-MET-i PDOX; day 59,1.66E+04 and 1.45E+07 and 1.32E+07 and 9.28E+06
same,"BLI signal, individual mice",TRIM24-MET-i PDOX; day 63,1.00E+04 and 1.56E+07 and 1.50E+07 and 1.67E+07 and 1.73E+07
same,"BLI signal, individual mice",TRIM24-MET-i PDOX; day 66,1.88E+04 and 1.21E+07 and 1.10E+07 and 1.09E+07 and 1.15E+07
same,"BLI signal, individual mice",TRIM24-MET-i PDOX; day 70,1.29E+04 and 1.30E+07 and 1.18E+07 and 1.05E+07 and 9.45E+06
same,"BLI signal, individual mice",TRIM24-MET-i PDOX; day 73,1.25E+04 and 1.36E+07 and 1.40E+07 and 1.57E+07 and 1.37E+07
same,"BLI signal, individual mice",TRIM24-MET-i PDOX; day 77,2.38E+04 and 1.11E+07 and 1.27E+07 and 1.95E+07 and 1.41E+07
same,"BLI signal, individual mice",TRIM24-MET-i PDOX; day 80,4.09E+05 and 1.22E+07 and 1.34E+07 and 1.51E+07 and 1.21E+07
same,"BLI signal, individual mice",TRIM24-MET-i PDOX; day 87,5.57E+04 and 8.07E+06 and 1.19E+07 and 1.62E+07 and 1.30E+07
same,"BLI signal, individual mice",TRIM24-MET-i PDOX; day 94,5.16E+06 and 8.75E+04 and 9.14E+06 and 1.32E+07 and 1.22E+07 and 1.18E+07
same,"BLI signal, individual mice",TRIM24-MET-i PDOX; day 101,4.91E+06 and 1.63E+05 and 1.19E+07 and 1.18E+07 and 1.62E+07 and 1.28E+07
same,"BLI signal, individual mice",TRIM24-MET-i PDOX; day 108,4.82E+06 and 1.31E+05 and 1.13E+07 and 1.14E+07 and 1.60E+07 and 1.16E+07
same,"BLI signal, individual mice",TRIM24-MET-i PDOX; day 115,5.08E+06 and 1.25E+05 and 1.05E+07 and 1.14E+07 and 1.96E+07 and 3.49E+07
same,"BLI signal, individual mice",TRIM24-MET-i PDOX; day 122,5.08E+06 and 1.38E+05 and 1.17E+07 and 1.22E+07 and 1.74E+07 and 1.49E+07
same,"BLI signal, individual mice",TRIM24-MET-i PDOX; day 129,4.08E+06 and 1.16E+05 and 1.09E+07 and 1.17E+07 and 1.27E+07 and 1.03E+07
same,"BLI signal, individual mice",TRIM24-MET-i PDOX; day 134,5.84E+06 and 1.72E+05 and 1.58E+07 and 1.63E+07 and 2.20E+07 and 1.51E+07
same,"BLI signal, individual mice",TRIM24-MET-i PDOX; day 147,3.52E+06 and 6.31E+04 and 7.64E+06 and 8.61E+06 and 1.16E+07 and 8.65E+06
same,"BLI signal, individual mice",TRIM24-MET-i PDOX; day 154,3.35E+06 and 4.61E+04 and 7.03E+06 and 9.83E+06 and 2.79E+06 and 8.33E+06
same,"BLI signal, individual mice",TRIM24-MET-i PDOX; day 161,2.37E+06 and 5.50E+04 and 7.89E+06 and 1.18E+07 and 1.19E+05 and 9.30E+06
same,"BLI signal, individual mice",TRIM24-MET-i PDOX; day 175,4.80E+06 and 4.72E+04 and 8.07E+06 and 1.66E+07 and 9.11E+04 and 8.38E+06
same,"BLI signal, individual mice",TRIM24-MET-i PDOX; day 182,4.95E+06 and 8.47E+04 and 3.64E+05 and 1.77E+07 and 1.39E+05 and 7.49E+06
same,"BLI signal, individual mice",TRIM24-MET-i PDOX; day 190,3.72E+06 and 4.67E+04 and 7.67E+06 and 5.60E+07 and 2.11E+05 and 1.19E+07
same,"BLI signal, individual mice",TRIM24-MET-i PDOX; day 196,6.43E+06 and 5.18E+04 and 3.56E+06 and 1.05E+08 and 3.94E+05 and 1.53E+07
same,"BLI signal, individual mice",TRIM24-MET-i PDOX; day 203,2.74E+07 and 1.05E+05 and 1.04E+07 and 1.46E+05 and 8.75E+07
same,"BLI signal, individual mice",TRIM24-MET-i PDOX; day 210,1.86E+08 and 5.35E+05 and 4.51E+06 and 4.00E+05 and 2.59E+08
same,"BLI signal, individual mice",TRIM24-MET-i PDOX; day 217,7.75E+04 and 8.09E+06 and 4.47E+05 and 1.91E+08
same,"BLI signal, individual mice",TRIM24-MET-i PDOX; day 224,3.08E+05 and 8.83E+06 and 1.05E+09
same,"BLI signal, individual mice",TRIM24-MET-i PDOX; day 231,2.46E+05 and 1.03E+07 and 8.02E+08
same,"BLI signal, individual mice",TRIM24-MET-i PDOX; day 238,2.87E+05 and 7.79E+06
same,"BLI signal, individual mice",TRIM24-MET-i PDOX; day 245,8.09E+04 and 1.06E+07
same,"BLI signal, individual mice",TRIM24-MET-i PDOX; day 252,7.86E+04 and 9.30E+06
same,"BLI signal, individual mice",TRIM24-MET-i PDOX; day 259,9.94E+04 and 1.03E+07
same,"BLI signal, individual mice",TRIM24-MET-i PDOX; day 266,8.77E+04 and 1.13E+07
same,"BLI signal, individual mice",TRIM24-MET-i PDOX; day 273,7.17E+04 and 3.23E+07
same,"BLI signal, individual mice",TRIM24-MET-i PDOX; day 280,1.06E+05 and 3.14E+07
same,"BLI signal, individual mice",TRIM24-MET-i PDOX; day 287,4.68E+04
same,"BLI signal, individual mice",TRIM24-MET-i PDOX; day 295,3.46E+04
same,"BLI signal, individual mice",TRIM24-MET-i PDOX; day 301,5.01E+06
same,"BLI signal, individual mice",TRIM24-MET-i PDOX; day 311,5.67E+04
same,"BLI signal, individual mice",TRIM24-MET-i PDOX; day 318,5.50E+04
same,"BLI signal, individual mice",TRIM24-MET-i PDOX; day 325,5.13E+04
same,"BLI signal, individual mice",TRIM24-MET-i PDOX; day 332,5.78E+04
